Where a name gives a salt, the structure may show the parent alone. For at least one compound, name, drawing or mass did not settle the structure.
Tested on: FOSB in MB231 cells
Experiment: FOSB induction, Western blot/immunocytochemistry, MB231
Assay type: cell-based, human
Conditions: MB231 (TNBC) cells, Western blot
Experimental: Nuclear extracts were prepared as previously described^23. Equal amounts of nuclear extract (200 μg) were used for immunoprecipitation (IP) using Dynabeads protein G (ThermoFisher Scientific), in accordance with the recommended protocol. cJUN antibody (ThermoFisher Scientific, clone C.238.2) was used for immunoprecipitation. Total cell extract preparation and Western blot were performed as previously described^23. Equal amounts of boiled lysate (20 μg of total cell extract) were separated on acrylamide gels, and then transferred to PVDF membranes. The membranes were incubated in blocking solution (0.1 M PBS, 5% non-fat milk, 0.2% Tween-20) for 1 h at room temperature (RT), and then incubated in the same solution with primary or secondary antibodies (GE Healthcare Life Science). […] Membranes were visualized with enhanced chemiluminescence (Immobilon Western Chemiluminescent HRP substrate, Merck Millipore) and detected by an imaging system (UVP, BioSpectrum™ 500). Signal intensities were determined by densitometric analysis (AlphaInnotech) using the AlphaImager program. The results were expressed as relative densitometric units (RDU) (the densitometric units of FOSB+FOSΔB divided by those of GAPDH). […]

**Q.** Which FOSB induction does the source give for `COc1cccc2c1C(=O)c1c(O)c3c(c(O)c1C2=O)C[C@@](O)(C(=O)CO)C[C@@H]3O[C@H]1C[C@H](N)[C@@H](O)[C@H](C)O1` [epirubicin, Epirubicin hydrochloride] here?
**A.** induced strong FOSB expression
